According to PMC9886921:
No constants are given. Whether binding was seen depends on the method and setting. Binding seen in cells or lysates may run through a third protein. Some binding calls cover weakened binding; strength is not graded here.

By UniProt entry, the sequences of proteins in these tests, tags left out. Where a name states a change or a piece, a line headed by the entry shows the natural chain unless it says otherwise.
UniProt P29066: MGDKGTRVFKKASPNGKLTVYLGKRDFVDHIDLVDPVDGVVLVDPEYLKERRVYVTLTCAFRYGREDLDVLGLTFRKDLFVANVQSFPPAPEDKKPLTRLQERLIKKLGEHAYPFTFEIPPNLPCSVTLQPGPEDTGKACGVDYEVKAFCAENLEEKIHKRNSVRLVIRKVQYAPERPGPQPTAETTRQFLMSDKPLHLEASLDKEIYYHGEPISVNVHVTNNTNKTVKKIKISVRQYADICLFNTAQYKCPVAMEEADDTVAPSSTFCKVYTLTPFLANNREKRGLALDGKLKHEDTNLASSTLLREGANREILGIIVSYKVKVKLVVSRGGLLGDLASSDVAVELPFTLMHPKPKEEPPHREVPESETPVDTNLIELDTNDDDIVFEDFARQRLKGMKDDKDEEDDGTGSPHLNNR
UniProt P49407: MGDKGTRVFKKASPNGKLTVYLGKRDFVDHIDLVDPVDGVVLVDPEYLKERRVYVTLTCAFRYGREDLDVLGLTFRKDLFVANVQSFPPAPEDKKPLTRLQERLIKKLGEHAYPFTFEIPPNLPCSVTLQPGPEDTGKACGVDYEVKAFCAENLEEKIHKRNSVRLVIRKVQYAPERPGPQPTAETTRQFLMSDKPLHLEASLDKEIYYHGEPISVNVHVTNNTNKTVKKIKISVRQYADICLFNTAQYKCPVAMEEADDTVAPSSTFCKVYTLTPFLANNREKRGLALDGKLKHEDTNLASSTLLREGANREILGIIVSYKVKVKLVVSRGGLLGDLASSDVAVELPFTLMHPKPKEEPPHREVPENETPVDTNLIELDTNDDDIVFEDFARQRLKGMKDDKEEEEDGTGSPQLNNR
UniProt P05556: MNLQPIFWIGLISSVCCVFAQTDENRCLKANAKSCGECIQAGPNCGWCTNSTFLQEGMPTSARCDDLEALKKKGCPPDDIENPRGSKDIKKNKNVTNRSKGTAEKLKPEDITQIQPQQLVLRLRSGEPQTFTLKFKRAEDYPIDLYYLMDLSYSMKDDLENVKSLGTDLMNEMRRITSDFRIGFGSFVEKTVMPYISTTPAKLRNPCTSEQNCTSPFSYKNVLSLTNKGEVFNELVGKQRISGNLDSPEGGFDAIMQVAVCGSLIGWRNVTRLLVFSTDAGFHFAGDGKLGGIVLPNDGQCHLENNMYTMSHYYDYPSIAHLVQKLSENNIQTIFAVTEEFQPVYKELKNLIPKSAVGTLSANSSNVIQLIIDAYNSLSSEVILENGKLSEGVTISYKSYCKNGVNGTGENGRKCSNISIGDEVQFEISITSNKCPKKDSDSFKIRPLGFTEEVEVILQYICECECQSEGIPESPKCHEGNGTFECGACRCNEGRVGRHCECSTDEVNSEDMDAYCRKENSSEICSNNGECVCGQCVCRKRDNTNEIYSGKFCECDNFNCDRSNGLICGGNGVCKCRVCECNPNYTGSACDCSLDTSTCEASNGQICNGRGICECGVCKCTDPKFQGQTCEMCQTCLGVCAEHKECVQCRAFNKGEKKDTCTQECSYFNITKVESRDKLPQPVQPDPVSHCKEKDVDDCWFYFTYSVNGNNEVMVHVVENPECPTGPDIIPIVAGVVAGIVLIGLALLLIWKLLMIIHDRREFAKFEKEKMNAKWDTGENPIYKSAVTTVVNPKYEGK
UniProt Q9Y490: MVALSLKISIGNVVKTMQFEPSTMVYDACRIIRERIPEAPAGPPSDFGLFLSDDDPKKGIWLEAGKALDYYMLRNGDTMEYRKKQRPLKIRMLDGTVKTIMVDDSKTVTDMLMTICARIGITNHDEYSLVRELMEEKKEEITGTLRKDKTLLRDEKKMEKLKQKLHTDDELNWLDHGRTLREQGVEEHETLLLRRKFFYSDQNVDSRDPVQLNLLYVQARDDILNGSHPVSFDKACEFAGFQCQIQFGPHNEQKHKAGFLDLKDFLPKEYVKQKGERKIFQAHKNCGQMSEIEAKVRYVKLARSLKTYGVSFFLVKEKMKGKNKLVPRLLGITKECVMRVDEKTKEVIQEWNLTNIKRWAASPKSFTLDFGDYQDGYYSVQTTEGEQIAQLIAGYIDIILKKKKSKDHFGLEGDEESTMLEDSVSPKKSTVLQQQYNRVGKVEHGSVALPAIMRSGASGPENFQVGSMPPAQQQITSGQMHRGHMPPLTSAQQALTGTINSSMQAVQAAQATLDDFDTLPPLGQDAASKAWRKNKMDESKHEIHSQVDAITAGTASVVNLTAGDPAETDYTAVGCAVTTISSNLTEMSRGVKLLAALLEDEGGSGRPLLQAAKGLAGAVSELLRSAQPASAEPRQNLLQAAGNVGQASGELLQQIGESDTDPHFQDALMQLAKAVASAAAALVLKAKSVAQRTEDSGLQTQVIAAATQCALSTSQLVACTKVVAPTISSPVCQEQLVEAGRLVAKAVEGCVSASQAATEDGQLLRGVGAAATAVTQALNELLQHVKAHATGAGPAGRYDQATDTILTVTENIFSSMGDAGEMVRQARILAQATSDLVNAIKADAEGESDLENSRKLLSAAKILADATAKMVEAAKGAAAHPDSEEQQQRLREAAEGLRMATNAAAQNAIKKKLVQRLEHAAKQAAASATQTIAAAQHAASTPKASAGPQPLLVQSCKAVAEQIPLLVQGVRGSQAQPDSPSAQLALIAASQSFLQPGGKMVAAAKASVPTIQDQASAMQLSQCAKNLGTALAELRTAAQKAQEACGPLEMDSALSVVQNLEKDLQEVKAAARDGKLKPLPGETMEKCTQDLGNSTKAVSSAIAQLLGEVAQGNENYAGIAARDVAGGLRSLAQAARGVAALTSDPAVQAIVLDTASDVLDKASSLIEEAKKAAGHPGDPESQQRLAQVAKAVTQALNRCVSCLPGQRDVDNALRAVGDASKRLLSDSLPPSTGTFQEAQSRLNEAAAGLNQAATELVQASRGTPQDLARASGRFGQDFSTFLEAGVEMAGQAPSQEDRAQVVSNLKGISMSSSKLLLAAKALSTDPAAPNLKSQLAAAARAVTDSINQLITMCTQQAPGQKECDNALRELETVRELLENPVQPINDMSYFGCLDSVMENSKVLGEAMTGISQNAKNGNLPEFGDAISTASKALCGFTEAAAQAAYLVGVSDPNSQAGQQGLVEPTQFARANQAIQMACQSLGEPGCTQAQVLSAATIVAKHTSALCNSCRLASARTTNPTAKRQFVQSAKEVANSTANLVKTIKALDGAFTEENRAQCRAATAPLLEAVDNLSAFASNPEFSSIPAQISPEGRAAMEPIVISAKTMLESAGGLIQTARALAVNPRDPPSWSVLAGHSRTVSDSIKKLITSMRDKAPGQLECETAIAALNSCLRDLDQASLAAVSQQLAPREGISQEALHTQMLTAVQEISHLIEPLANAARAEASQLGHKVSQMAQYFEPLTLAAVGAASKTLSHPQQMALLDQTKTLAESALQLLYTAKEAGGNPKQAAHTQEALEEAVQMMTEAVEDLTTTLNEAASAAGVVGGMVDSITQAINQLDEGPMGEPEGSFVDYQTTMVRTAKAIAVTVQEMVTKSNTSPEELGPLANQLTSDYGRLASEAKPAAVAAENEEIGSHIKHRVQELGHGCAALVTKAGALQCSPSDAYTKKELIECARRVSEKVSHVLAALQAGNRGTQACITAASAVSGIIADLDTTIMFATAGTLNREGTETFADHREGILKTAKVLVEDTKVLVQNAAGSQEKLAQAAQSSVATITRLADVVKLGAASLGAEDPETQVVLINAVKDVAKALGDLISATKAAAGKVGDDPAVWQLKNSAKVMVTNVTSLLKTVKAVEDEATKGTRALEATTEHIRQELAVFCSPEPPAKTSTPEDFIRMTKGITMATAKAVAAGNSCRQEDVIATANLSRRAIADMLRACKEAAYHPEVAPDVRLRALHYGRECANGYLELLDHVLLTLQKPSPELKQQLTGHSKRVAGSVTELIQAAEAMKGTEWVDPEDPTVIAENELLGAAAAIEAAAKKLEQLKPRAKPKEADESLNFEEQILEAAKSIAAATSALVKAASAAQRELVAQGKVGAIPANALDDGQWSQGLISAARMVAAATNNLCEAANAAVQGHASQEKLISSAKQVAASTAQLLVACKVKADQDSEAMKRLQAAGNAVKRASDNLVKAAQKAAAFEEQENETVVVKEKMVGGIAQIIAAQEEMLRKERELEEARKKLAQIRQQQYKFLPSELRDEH

Assays:
[1] = target: GST-β-arr1 fusion protein (UniProt P29066); experiment: pull-down; 300 μg lysate of OVCAR3 cells stimulated or not with ET-1, incubated with GST or GST-β-arr1 and Glutathione-Sepharose beads for 2 h at 4 °C; washed three times with PBS; WB; only the target purified
[2] = target: β-arrestin1 (human (endogenous in SKOV3 and OVCAR3)) (UniProt P49407); experiment: co-IP; lysates of SKOV3 cells stimulated with ET-1 (100 nM, 5 min); precleared whole-cell lysates immunoprecipitated with anti-β-arr1 or irrelevant IgG and protein A or G Sepharose, 4 °C overnight; WB; silencing of talin1 also tested (Supplementary Fig. 4B)
[3] = target: β-arrestin1 (human (endogenous in SKOV3 and OVCAR3)) (UniProt P49407); experiment: proximity ligation; endogenous proteins in fixed OVCAR3 cells stimulated with ET-1 and/or AMB and/or ATN161; Duolink anti-mouse PLUS and anti-rabbit MINUS probes; negative controls with one primary antibody and irrelevant IgG
[4] = target: integrin β1 (human (endogenous in SKOV3 and OVCAR3)) (UniProt P05556); experiment: as above

binding [1]	binding [2]	binding [3]	binding [4]	Substance
binds	binds	binds		integrin β1 (from UniProt P05556 21-798) (receptor)
binds	binds	binds	binds	talin1 (from UniProt Q9Y490 1-2541)
